{"source": "PubChem BioAssay AID504744 (Drosophila RNAi Screening Center, 2011)", "purpose": "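Identify dsRNAs that increase or decrease phospho-dAkt after insulin treatment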 (primary screen)", "cells": "Drosophila Kc167 cells", "knock-down reagent": "long dsRNA against Drosophila genes, 250 ng dsRNA per well of a 384-well plate", "time to read-out": "3 days of knock-down, then overnight serum-free starvation before stimulation", "conditions": "bovine insulin at 387 nM for 10 minutes after 12 h without serum", "read-out": "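Per-well phospho-dAkt level from an in-cell fluorescent antibody stain, divided by a DNA-dye signal; log2 residuals turned into z-scores that take cell number into account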", "active means": "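Under insulin, a gene counts as a hit if the average z-score of two replicates lies above 2.5 or below -2.5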", "note": "In all, the deposit lists about 23,000 reagents; shown is a random part of those with a known target gene and a result. Over the whole deposit, 98 (0.43%) were called active. 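Only hit calls are given; the phospho-dAkt signals, z-scores and hit direction were not deposited.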 A plus sign joins genes that one reagent is predicted to hit."}
{"gene": "Cad74A", "dsRNA": "DRSC10636", "Outcome": "inactive"}
{"gene": "Skp2 + CG1103", "dsRNA": "DRSC12160", "Outcome": "inactive"}
{"gene": "Skp2 + CG1103", "dsRNA": "DRSC22356", "Outcome": "inactive"}
{"gene": "CG5321", "dsRNA": "DRSC19940", "Outcome": "inactive"}
{"gene": "CG5321", "dsRNA": "DRSC22802", "Outcome": "inactive"}
{"gene": "COX7B", "dsRNA": "DRSC10895", "Outcome": "inactive"}
{"gene": "CG13073", "dsRNA": "DRSC09956", "Outcome": "inactive"}
{"gene": "FBXO11", "dsRNA": "DRSC16497", "Outcome": "inactive"}
{"gene": "CG9664", "dsRNA": "DRSC00725", "Outcome": "inactive"}
{"gene": "cib", "dsRNA": "DRSC18660", "Outcome": "inactive"}
{"gene": "Hsp110", "dsRNA": "DRSC11186", "Outcome": "inactive"}
{"gene": "CG9706", "dsRNA": "DRSC11095", "Outcome": "inactive"}
{"gene": "red", "dsRNA": "DRSC14477", "Outcome": "inactive"}
{"gene": "Trmt61", "dsRNA": "DRSC14888", "Outcome": "inactive"}
{"gene": "CG32638", "dsRNA": "DRSC18968", "Outcome": "inactive"}
{"gene": "CG18542 + CG32939", "dsRNA": "DRSC15342", "Outcome": "inactive"}
{"gene": "ND-75", "dsRNA": "DRSC18686", "Outcome": "inactive"}
{"gene": "mthl14", "dsRNA": "DRSC07865", "Outcome": "inactive"}
{"gene": "CG10950", "dsRNA": "DRSC06020", "Outcome": "inactive"}
{"gene": "CG1299", "dsRNA": "DRSC08300", "Outcome": "inactive"}
{"gene": "Spn88Eb", "dsRNA": "DRSC16093", "Outcome": "inactive"}
{"gene": "CG6470", "dsRNA": "DRSC19994", "Outcome": "inactive"}
{"gene": "CG15435", "dsRNA": "DRSC00450", "Outcome": "inactive"}

3 of these entries, reformatted.
{"gene":"CG5321","dsRNA":"DRSC19940","Outcome":"inactive"}
{"gene":"CG5321","dsRNA":"DRSC22802","Outcome":"inactive"}
{"gene":"COX7B","dsRNA":"DRSC10895","Outcome":"inactive"}
